Data on 18 compounds can be found in PubChem BioAssay AID2685 (National Center for Advancing Translational Sciences (NCATS), 2010).

A short description of this assay: qHTS Assay for Lipid Storage Modulators in Drosophila S3 Cells.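 As to cell number change: cells counted by Cell Tracker Red CMTPX staining in the red channel.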 The settings on record: BODIPY lipid droplet fluorescence, 18-24 h; for cell number change: measured here: cell count max response, cells fed with added oleic acid. The method in brief: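 Drosophila S3 cells got compounds at several concentrations plus oleic acid (400 uM solution). Laser-scanning cytometry with 488 nm excitation read lipid droplets at 500-530 nm and cells at 575-640 nm. Percent activity was relative to 20 uM Triacsin C.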

The mark [1] stands for this setting: measured here: lipid fluorescence (Fed channel) AC50, cells fed with added oleic acid.

The other results are listed elsewhere or left out. Further columns of the screen follow, without active or inactive calls. The list favours compounds with an active or inconclusive main result. Potencies come from curve fits of mixed quality, noted in brackets.

On to `CCN(CC)C(=O)COCc1cc(-c2ccc3c(c2)OCO3)on1`, for which the AC50 (in general, the concentration giving half of the maximal activity seen) under setting [1] was 6.51 µM [rising, single point].
Turning to `COc1ccc(-c2nnc3ccc(SC)nn23)cc1`, the cell number change was -0.117%. Moreover, the AC50 under setting [1] was 6.51 µM [falling, single point].
In the case of `Cc1cc(NC2CCCCC2)nc(N2CCOCC2)n1`, the cell number change was 21.2%. Further, the AC50 under setting [1] was 14.6 µM [rising, single point].
As to `CN1C(C(=O)NCc2cccc(Br)c2)CC2Cn3c(nc4cc5ccccc5cc43)C21` (stereo not given), the cell number change amounted to 42.3%. Also, the AC50 under setting [1] is 29.1 µM [rising, single point].
Consider `Clc1ccccc1CSc1nnc(Cn2cnc3ccccc32)n1-c1ccccc1`, for which the cell number change was determined as 1.84%. In addition, the AC50 under setting [1] was 25.9 µM [falling, single point].
In the case of `Cc1cccc(/C=C2/Sc3ccc(C(=O)NCCN4CCCC4)cc3NC2=O)c1`, the cell number change was -15.6%. Besides, the AC50 under setting [1] was 0.116 µM [falling, full curve, poor fit].
For the compound `COCC(C)OC(=O)c1c(N)n(-c2ccc(OC)c(OC)c2)c2nc3ccccc3nc12` (stereo not given), the cell number change is 16.4%. Besides, the AC50 under setting [1] is 2.06 µM [rising, single point].
In the case of `CCOC(=O)CSc1nc(N)c(C#N)cc1C#N`, the cell number change worked out at 8.24%. Also, the AC50 under setting [1] is 0.146 µM [falling, full curve, poor fit].
For `CCOC(=O)C1=C(CC)OC(N)=C(C#N)C1c1ccsc1` (stereo not given), the cell number change was -0.3%. For the same compound, the AC50 under setting [1] is 32.6 µM [falling, partial curve, poor fit].
With `Cc1ccc(O)c(C(=O)c2cc(C#N)c3nc4ccccc4n3c2)c1`, the cell number change was -3.97%.
In the case of `O=C1CC(Nc2ccc(N3CCOCC3)cc2)C(=O)N1CCc1ccccc1` (stereo not given), where the note is “measured here: cell number channel AC50, cells fed with added oleic acid”, the AC50 is 2.31 µM [rising, partial curve].
Turning to `CCCCn1c(N)c(N(CCOC)C(=O)CSCc2cccc(C)c2)c(=O)[nH]c1=O`, under setting [1], the AC50 is 3.26 µM [rising, single point].
Consider `Cc1nn(-c2ccccc2)c(C)c1/C=N/NC(=O)CSc1nnc(SCc2ccc(Cl)cc2)s1`, for which the cell number change is -9.84%. Further, the AC50 under setting [1] was 1.16 µM [falling, single point].
Consider `O=S(=O)(Nc1cccnc1)c1ccc(C2CCCCC2)cc1`, for which the cell number change was determined as 7.25%. Also, the AC50 under setting [1] was 6.51 µM [falling, single point].
Consider `COc1ccc(NC(=O)CSc2ccc(-c3cccnc3)nn2)cc1`, for which the cell number change was determined as 27.4%. For the same compound, the AC50 under setting [1] was 8.91 µM [rising, partial curve, poor fit].
`CC1=CCC2C(=O)N(c3cccc(C(=O)NCc4ccccc4)c3)C(=O)C2C1` (stereo not given): the cell number change turned out to be 13.5%.
On to `Cc1cc(C)cc(NC(=O)CN2CCC(NC(=O)c3ccccc3F)CC2)c1`, for which the cell number change was 11%. Besides, under setting [1], the AC50 is 29.1 µM [rising, single point].
For the compound `CCOC(=O)C1=C(c2ccccc2)N=c2s/c(=C\c3cc(OC)c(OC)c(OC)c3)c(=O)n2C1c1cccs1` (stereo not given), the cell number change came out at 20.1%.
